Assay results taken from patent US10463671B2, “Combination therapy for treating cancer” (Epizyme, Inc., priority 2013, dated 2019).

Tests used:
SU-DHL10 cells = experiment: cells; conditions: Homo sapiens, SU-DHL10, read-out: 7 Day Cpd44 IC50, 4 d Pred Pre/ 3 d Co-treat, SU-DHL10 (Y646-Sens); 4 d prednisolone then 3 d Cpd44 + prednisolone
WSU-DLCL2 cells = experiment: Medium throughput combination proliferation assay (CellTiter-Glo, Chou-Talalay CI / potency shift); conditions: Homo sapiens, WSUDLCL2, […], read-out: Potency (Compound 44 IC50)
SU-DHL-10 cells = experiment: as above; conditions: read-out: Potency (Compound 44 IC50), calculated after 7 days
DOHH2 cells = experiment: as above; conditions: read-out: Potency (Compound 44 IC50); DOHH-2; calculated after 7 days
SU-DHL-5 cells = experiment: as above; conditions: Homo sapiens, read-out: Potency (Compound 44 IC50)
OCI-LY19 cells = experiment: as above; conditions: Homo sapiens, read-out: Potency (Compound 44 IC50)
Toledo cells = experiment: as above; conditions: read-out: Potency (Compound 44 IC50), calculated after 11 days of treatment

## CCN(c1cc(-c2ccc(CN3CCOCC3)cc2)cc(C(=O)NCc2c(C)cc(C)[nH]c2=O)c1C)C1CCOCC1 [Compound 44]
SU-DHL10 cells
  IC50: 520 nM
WSU-DLCL2 cells
  IC50: 310 nM
SU-DHL-10 cells
  IC50: 73 nM
DOHH2 cells
  IC50: > 10000 nM
SU-DHL-5 cells
  IC50: 3300 nM
OCI-LY19 cells
  IC50: > 10000 nM
Toledo cells
  IC50: > 10000 nM
